The results in this text go back to patent publication US20220348663A1 (Y BIOLOGICS, published 2022).

The target of experiment [1] is cynomolgus B7-H3 (#90806-C08H, Sino) (cynomolgus monkey). The experiment can be described thus: ELISA on coated CynoMonkeyB7H3, OD450nm. A general note: An ELISA detects its analyte on a solid surface through an enzyme-linked reagent.
Experiment [2] shares this target. The experiment in a line: ELISA on coated cynomolgusMonkey B7H3, OD450nm.

No constants are given. Whether binding was seen depends on the method and setting. Binding can be weak; no strength is given.

B1: CD276-033E03 (antibody, V domains shown)
VH: QVQLVESGGGLVQSGGSLRLSCAASGFTFSSYAMSWVRQAPGKGLEWVSVISGSGGSRYYADSVKGRFTISRDNSKNTLYLQMNSLRAEDTAVYYCASHTIPGAWDVWGQGTLVTVSS
VL: QSALTQPASVSGSPGQSITISCTGTTRDVGGYNYVSWYQQHPGKAPKLMIYDVNNRPSGVSYRFSGSKSGNTASLTISGLQAEDEADYYCSSYTTSSRRVFGTGTKVTVL
Turning to B1, in experiment [1], the binding result is “binds”.

B2: CD276-039C05 (antibody, V domains shown)
VH: QVQLVESGAEVKKPGSSVKVSCKASGGTFSSYAISWVRQAPGQGLEWMGRIIPILGIANYAQKFQGRVTITADKSTSTAYMELSSLRSEDTAVYYCANGGDSSSWYTFDYWGQGTLITVSS
VL: DIQMTQSPSTLSASVGDKLTLTCRASQSISRWLAWYQQKPGKAPKLLIYKASYLQTGVPSRFSGSGTGTEFTLTISSLQPDDFATYYCQQYNTFPLTFAGGTKVEIK
notes: Converted from scFv to IgG form; Parent of the _LS_ light-chain variants
Turning to B2, the binding result in experiment [2] is reported as “binds”.

B3: CD276-039C05_LS_002B07 (antibody, V domains shown)
VH: QVQLVESGAEVKKPGSSVKVSCKASGGTFSSYAISWVRQAPGQGLEWMGRIIPILGIANYAQKFQGRVTITADKSTSTAYMELSSLRSEDTAVYYCANGGDSSSWYTFDYWGQGTLITVSS
VL: DIQMTQSPSSLSASVGDRVTITCRASQGISSYLAWYQQKPGKAPKLLIYAASTLQSGVPSRFSGSGSGTDFTLTISSLQPEDFATYYCQQYYSFPLTFGGGTKVEIK
Turning to B3, the binding entry in experiment [2] is recorded as “binds”.
